Structures were worked out from names or drawings and are uncertain.

The values that follow come from patent EP4840453A1, “CANCER TREATMENT AGENT CONTAINING CLK INHIBITOR AS ACTIVE INGREDIENT” (dated 2026).

One assay concerns HL-60. Briefly: Cell proliferation assay (ATPlite 1Step), single agents and combination with Compound A, curve-shift and CI; 72 h culture, 120 h for EPZ-6438, JQ1, MLN-4924, MLN-7243, MPI-0479605, NMS-P715.
Another assay concerns NCI-H661. The assay is described as above.
Where [1] appears, read: blending ratio (Compound A : combined compound) 1:4, Fa 50.
Setting [2] is: blending ratio (Compound A : combined compound) 4:1, Fa 50.
Where [3] appears, read: blending ratio (Compound A : combined compound) 4:1, Fa 75.

With `O=C(O)CSc1cc(NS(=O)(=O)c2ccc(Br)cc2)c2ccccc2c1O`, the CI with HL-60 (Compound A + combined compound at fixed concentration 1 µM, Fa 90) is 0.75.

As for `Cc1c2oc3c(C)ccc(C(=O)N[C@@H]4C(=O)N[C@H](C(C)C)C(=O)N5CCC[C@H]5C(=O)N(C)CC(=O)N(C)[C@@H](C(C)C)C(=O)O[C@@H]4C)c3nc-2c(C(=O)N[C@@H]2C(=O)N[C@H](C(C)C)C(=O)N3CCC[C@H]3C(=O)N(C)CC(=O)N(C)[C@@H](C(C)C)C(=O)O[C@@H]2C)c(N)c1=O`, the CI in the assay on HL-60 (setting [1]) turned out to be 1.04; in the assay with HL-60 (setting [2]), 0.91; in the assay on HL-60 (setting [3]), 1.04; in the assay with NCI-H661 (blending ratio (Compound A : combined compound) 1:1, Fa 50) it was 0.94; in the assay on NCI-H661 (blending ratio (Compound A : combined compound) 1:1, Fa 90), 0.60; with NCI-H661 (setting [1]), 0.94. Also, the CI in the assay on NCI-H661 (setting [2]) is listed as 0.93; with NCI-H661 (setting [3]) it was 0.24; in the assay on NCI-H661 (blending ratio (Compound A : combined compound) 4:1, Fa 90) it was 0.17.
